Library screening results

Chains of the proteins cited; added tags and fusions are not shown.
UniProt E9BF75, entry or part of it: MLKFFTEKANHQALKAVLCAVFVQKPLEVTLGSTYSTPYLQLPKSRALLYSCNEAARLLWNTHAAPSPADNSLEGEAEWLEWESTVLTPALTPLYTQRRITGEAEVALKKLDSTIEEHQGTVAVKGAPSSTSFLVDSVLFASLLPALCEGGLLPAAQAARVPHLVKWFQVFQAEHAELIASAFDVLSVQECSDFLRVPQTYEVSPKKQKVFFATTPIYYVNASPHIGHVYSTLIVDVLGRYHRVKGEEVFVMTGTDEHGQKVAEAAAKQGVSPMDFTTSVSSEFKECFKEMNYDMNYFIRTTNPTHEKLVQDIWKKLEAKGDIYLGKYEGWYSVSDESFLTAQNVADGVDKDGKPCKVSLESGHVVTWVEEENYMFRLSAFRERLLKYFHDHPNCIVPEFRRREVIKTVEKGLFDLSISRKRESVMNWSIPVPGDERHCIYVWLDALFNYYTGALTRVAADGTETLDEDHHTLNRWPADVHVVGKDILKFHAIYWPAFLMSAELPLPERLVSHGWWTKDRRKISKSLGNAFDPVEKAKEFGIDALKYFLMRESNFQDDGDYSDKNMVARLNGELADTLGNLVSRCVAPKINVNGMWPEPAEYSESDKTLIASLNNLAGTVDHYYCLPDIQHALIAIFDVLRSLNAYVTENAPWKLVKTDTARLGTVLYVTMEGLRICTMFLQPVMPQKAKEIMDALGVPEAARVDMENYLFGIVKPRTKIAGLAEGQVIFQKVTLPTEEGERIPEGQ

Measurements from “University of Dundee, Small-Polar-MMV Screening Library” (2021), ChEMBL document CHEMBL3988442.

Mtb heat-shock: 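Assay on Mycobacterium tuberculosis, filed only as a heat shock assay from Cornell; the read-out is not stated. The concentration is filed as 10 mM, unlikely as a test dose, so the dose is not known. The record gives no direction; compounds that gave an IC50 in retests scored well above the rest, so higher reads as stronger inhibition. Of about 69,000 compounds tested this way, about 930 (1.4%) reached 50% or more in at least one test.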
LdMetRS: 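Methionyl-tRNA synthetase (putative), Leishmania donovani (UniProt E9BF75). Primary screen of methionyl-tRNA synthetase; the read-out is not stated. The test concentration is not given. Values are per cent inhibition. About 68,000 compounds were tested under these conditions; 0.035% (about 24) showed 50% or more at least once.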
Mtb growth Cornell: 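Whole-cell assay for inhibitors of Mycobacterium tuberculosis growth, labelled Cornell in the record; the read-out is not stated. The concentration is filed as 10 mM, unlikely as a test dose, so the dose is not known. Higher means stronger inhibition (inferred from two other growth screens of the library). About 53,000 compounds were tested under these conditions; 1.7% (about 900) showed 50% or more at least once.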

Results are percentages, as filed.
The record does not define 0% and 100%; most values in the screen are far below 50% and negative numbers occur (in some assays of this library far below -100).
Compounds were drawn at random from those tested, without regard to their results.

With c1ccc2oc(CCCN3CCCC3c3noc(C4CC4)n3)nc2c1 (stereo not shown) the screen gave Mtb heat-shock: 8.069%; LdMetRS: 6.442%.
With O=C(COc1coc(CN2CCOCC2)cc1=O)c1ccc(Cl)cc1 the screen gave Mtb heat-shock: -34.45%; LdMetRS: 14.08%; Mtb growth Cornell: 4.659%.
With O=C(c1ccc(=O)[nH]n1)N1CCCC1C1CCCC1 (stereo not shown) the screen gave Mtb heat-shock: -9.787%; LdMetRS: 14.08%; Mtb growth Cornell: -27.12%.
With CCN1CCN2CCCN(S(=O)(=O)c3ccc(C)cc3C)C2C1=O (stereo not shown) the screen gave Mtb heat-shock: 14.27%; LdMetRS: 11.38%; Mtb growth Cornell: 27.23%.
With O=C(O)C(F)(F)F.[H][C@]12CCC[C@@H](CN(C)C3CC3)[C@@]1([H])CN(c1ncccn1)C2 the screen gave Mtb heat-shock: -4.105%.
With CCN1CCC(CC(=O)N2CCc3sc(C(=O)N(C)C)cc3C2)CC1 the screen gave Mtb heat-shock: -13.8%; LdMetRS: 9.51%; Mtb growth Cornell: -7.82%.
With CC(C)[C@H](NC(=O)N1CCC(Cc2ccccc2)CC1)C(=O)O the screen gave Mtb heat-shock: -22.33%; LdMetRS: 5.666%; Mtb growth Cornell: 16.81%.
With Cc1oc(-c2ccco2)nc1CN1CCCC(Cn2cncn2)C1 (stereo not shown) the screen gave Mtb heat-shock: -37.49%; LdMetRS: -4.789%.
With O=C(c1cccc(CNC/C=C/c2ccccc2)c1)N1CCCC1 the screen gave Mtb heat-shock: -1.504%; LdMetRS: 8.707%; Mtb growth Cornell: -34.91%.
With CC1c2ncc(CNC(=O)C3CC3)n2CCN1Cc1cnn(C)c1 (stereo not shown) the screen gave LdMetRS: 4.603%.
With CCn1c(C)cc(C(=O)N2CCC(Nc3ccc(C)nn3)CC2)c1C the screen gave Mtb heat-shock: -17.6%; LdMetRS: 11.98%; Mtb growth Cornell: 14.84%.
With COC(=O)c1ccnn1COc1ccc(Cl)cc1 the screen gave Mtb heat-shock: -12.69%; LdMetRS: 3.432%; Mtb growth Cornell: 12.77%.
With c1cncc(-c2noc(CNC3CCCN(c4cccnn4)C3)n2)c1 (stereo not shown) the screen gave Mtb heat-shock: -9.125%; LdMetRS: 29.81%.
With O=C(NCC1(N2CCOCC2)CCSC1)Nc1ccncc1 (stereo not shown) the screen gave Mtb heat-shock: -3.337%; LdMetRS: 4.348%; Mtb growth Cornell: 26.61%.
With CC(C)(C)C(=O)N1C[C@H](c2ccsc2)[C@H]2CN(C3CCCCC3)CC[C@H]21 the screen gave LdMetRS: 18.35%.
With CN(C)[C@@H]1CCN(C(=O)C2CCOCC2)[C@H]1Cc1ccncc1.O=C(O)C(F)(F)F.O=C(O)C(F)(F)F the screen gave Mtb heat-shock: -22.22%; Mtb growth Cornell: 9.237%.
With CC(C)(C)OC(=O)NCCNC(=O)c1cnc(-c2ccccc2)nc1 the screen gave Mtb heat-shock: 13.97%; LdMetRS: 4.982%.
With CN(C)C(=O)CN1CCC2(CC1)C[C@@H](O)[C@H](c1ccccc1)NC2=O the screen gave Mtb heat-shock: -1.325%; LdMetRS: 14.19%; Mtb growth Cornell: -15.73%.
With CC(Cn1ccnc1)NC(=O)NCc1cccnc1OC1CCCC1 (stereo not shown) the screen gave Mtb heat-shock: -13.86%; LdMetRS: 17.63%; Mtb growth Cornell: 7.11%.
With COCC(=O)N1CC[C@H]2C[C@H](C)O[C@@H]2C1 the screen gave LdMetRS: 16.38%.
With CCS(=O)(=O)N1CCCC(n2nnn(-c3ccccc3)c2=O)C1 (stereo not shown) the screen gave Mtb heat-shock: -7.793%; LdMetRS: 13.71%; Mtb growth Cornell: 8.982%.
With CC(=O)N1CCC(C(=O)NCc2cc[nH]n2)(c2ccccc2)CC1 the screen gave Mtb heat-shock: 0.5475%; LdMetRS: 12.57%; Mtb growth Cornell: -4.118%.
With CCCNC(=O)CN1CCC(NC(=O)c2cc(CC)ccc2O)CC1 the screen gave Mtb heat-shock: 7.574%; LdMetRS: 20.2%.

The last 3 entries again:

* CCS(=O)(=O)N1CCCC(n2nnn(-c3ccccc3)c2=O)C1 (stereo not shown) | Mtb heat-shock: -7.793%; LdMetRS: 13.71%; Mtb growth Cornell: 8.982%
* CC(=O)N1CCC(C(=O)NCc2cc[nH]n2)(c2ccccc2)CC1 | Mtb heat-shock: 0.5475%; LdMetRS: 12.57%; Mtb growth Cornell: -4.118%
* CCCNC(=O)CN1CCC(NC(=O)c2cc(CC)ccc2O)CC1 | Mtb heat-shock: 7.574%; LdMetRS: 20.2%